Test results reported in patent US11524063B2, “Materials and methods relating to immunogenic epitopes from human papillomavirus” (priority 2017, dated 2022).
Some entries share one result that the patent states for a list of compounds.

Test system: SCC-104 cells
Experiment: HPV-CTL cytotoxicity assay (CellTracker/PI flow cytometry)
Assay type: cell-based, human
Details: E7-CTLs, effector/target 5:1, 48 hours; 1 μg/mL antibody, 1 μM Epacadostat

## NS(=O)(=O)NCCNc1nonc1C(=NO)Nc1ccc(F)c(Br)c1 [IDO-1i, Epacadostat]
  increase in sensitivity of SCC-104 to E7-CTL mediated cytotoxicity compared to mock (Ig+DMSO) treatment: 3-5 fold
